Measurements reported in PubChem BioAssay AID192 (DTP/NCI, 2004).
The list shows only some results of the screen, not a fair sample: its compounds were picked by chemical class. Other doses and runs of a compound may be missing. T/C gives the treated animals as a percentage of the vehicle group. Some entries give survivors of the animals treated and no T/C: the source files T/C as zero there, which appears to mark a toxic dose or a test without result, not a measured value. Some doses without a T/C left all or most animals alive at the check, yet need not have been tolerated: survival well below the control is almost never listed, so the zero probably covers shortened survival too. Survivors were counted at the toxicity check, usually on the fifth day, unless a day is given; later deaths do not show. Schedules are NCI's codes, taken here to give the interval after Q, in days (D) or hours (H), and the number of doses after X. Where survival is the endpoint, the PubChem record calls one and a half times the control and up active, and a quarter to a half above the control has no call in these data; cut-offs in other NCI protocols can differ. Some doses were run more than once; the results are listed from low to high. Some T/C values carry the count of animals alive at the toxicity check (mostly the fifth day); without a count or a note in brackets, all were alive then.

System: BDF1 mice, B16 melanoma ip, median survival T/C
Experiment: NCI In Vivo Anticancer Drug Screen. Data for tumor model B16 Melanoma (intraperitoneal) in B6D2F1 (BDF1) mice
Conditions: T/C endpoint: median survival time, schedule: Q01DX009 (ip), higher T/C = longer survival
Procedure: The antitumor activity of compounds was measured in mice bearing transplantable tumors. Survival or tumor size were measured and the results are expressed as the measurement made in the treated group (T) divided by the measurement made in the vehicle treated control group (C). The tumor model used in this assay is B16 Melanoma (intraperitoneal) in B6D2F1 (BDF1) mice

[1] = dose: 2.0 mg/kg/injection, vehicle: Klucel (hydroxypropylcellulose) (HPC)
[2] = dose: 8.0 mg/kg/injection, vehicle: Klucel (hydroxypropylcellulose) (HPC)

N#C/C(=C\c1ccc(N(CCBr)CCBr)cc1)C(N)=O
T/C (dose: 0.5 mg/kg/injection, vehicle: saline with Tween-80): 127 % of control
T/C (dose: 1.0 mg/kg/injection, vehicle: saline sonified): 144 % of control
T/C (dose: 1.0 mg/kg/injection, vehicle: saline with Tween-80): 135 % of control
T/C [1]: 133 % of control
T/C (dose: 2.0 mg/kg/injection, vehicle: saline sonified): 142 % of control
T/C (dose: 2.0 mg/kg/injection, vehicle: saline with Tween-80): 150 % of control
T/C (dose: 3.0 mg/kg/injection, vehicle: Klucel (hydroxypropylcellulose) (HPC)): 184 % of control
T/C (dose: 4.0 mg/kg/injection, vehicle: saline sonified): 163 % of control
T/C (dose: 4.0 mg/kg/injection, vehicle: saline with Tween-80): 141 % of control [9 of 10 alive]
T/C (dose: 4.5 mg/kg/injection, vehicle: Klucel (hydroxypropylcellulose) (HPC)): 187 % of control
T/C (dose: 8.0 mg/kg/injection, vehicle: saline sonified): 94 % of control
survivor count (dose: 8.0 mg/kg/injection, vehicle: saline with Tween-80): 9 of 10
survivor count (dose: 12.0 mg/kg/injection, vehicle: saline with Tween-80): 10 of 10

C[N+](C)(C)c1ccccc1.F[P-](F)(F)(F)(F)F
T/C (dose: 6.25 mg/kg/injection, vehicle: Klucel (hydroxypropylcellulose) (HPC)): 100 % of control [8 of 10 alive]
T/C (dose: 12.5 mg/kg/injection, vehicle: Klucel (hydroxypropylcellulose) (HPC)): 103 % of control
T/C (dose: 25.0 mg/kg/injection, vehicle: Klucel (hydroxypropylcellulose) (HPC)): 100 % of control [9 of 10 alive]

Oc1ccc(N(CCCl)CCCl)cc1
T/C (dose: 0.5 mg/kg/injection, vehicle: Klucel (hydroxypropylcellulose) (HPC)): 109 % of control
T/C (dose: 1.0 mg/kg/injection, vehicle: Klucel (hydroxypropylcellulose) (HPC)): 87 [9 of 10 alive] and 111 % of control
T/C [1]: 122 and 128 % of control
T/C (dose: 4.0 mg/kg/injection, vehicle: Klucel (hydroxypropylcellulose) (HPC)): 146 and 149 % of control
T/C [2]: 147 % of control
survivor count [2]: 9 of 10
survivor count (dose: 16.0 mg/kg/injection, vehicle: Klucel (hydroxypropylcellulose) (HPC)): 10 of 10

Cc1ccc(Sc2ccc([N+](=O)[O-])cc2[N+](=O)[O-])c([N+](=O)[O-])c1
T/C (dose: 50.0 mg/kg/injection, vehicle: saline): 100 % of control
T/C (dose: 100.0 mg/kg/injection, vehicle: saline): 100 % of control
T/C (dose: 200.0 mg/kg/injection, vehicle: saline): 102 % of control
T/C (dose: 400.0 mg/kg/injection, vehicle: saline): 110 % of control

ClCCNc1nc2ccc(Cl)cc2c2ccccc12
T/C (dose: 0.08 mg/kg/injection, vehicle: saline): 89 % of control
T/C (dose: 0.15 mg/kg/injection, vehicle: saline): 100 % of control
T/C (dose: 0.3 mg/kg/injection, vehicle: saline): 97 % of control
T/C (dose: 0.6 mg/kg/injection, vehicle: saline): 89 % of control
T/C (dose: 1.25 mg/kg/injection, vehicle: saline with Tween-80): 97 % of control
T/C (dose: 2.5 mg/kg/injection, vehicle: saline with Tween-80): 100 % of control
T/C (dose: 5.0 mg/kg/injection, vehicle: saline with Tween-80): 97 % of control
T/C (dose: 10.0 mg/kg/injection, vehicle: saline with Tween-80): 88 % of control
T/C (dose: 5.0 micrograms/kg/injection, vehicle: saline): 97 % of control
T/C (dose: 10.0 micrograms/kg/injection, vehicle: saline): 102 % of control
T/C (dose: 20.0 micrograms/kg/injection, vehicle: saline): 97 % of control
T/C (dose: 40.0 micrograms/kg/injection, vehicle: saline): 92 % of control
